Measured values reported in publication PMC10758092.
These are yes or no findings as the source states them, for the method shown. Binding seen in cells or lysates may run through a third protein. Some binding calls cover weakened binding; strength is not graded here.

Amino acid sequences for entries named in this document (tags omitted).
UniProt Q86VP3: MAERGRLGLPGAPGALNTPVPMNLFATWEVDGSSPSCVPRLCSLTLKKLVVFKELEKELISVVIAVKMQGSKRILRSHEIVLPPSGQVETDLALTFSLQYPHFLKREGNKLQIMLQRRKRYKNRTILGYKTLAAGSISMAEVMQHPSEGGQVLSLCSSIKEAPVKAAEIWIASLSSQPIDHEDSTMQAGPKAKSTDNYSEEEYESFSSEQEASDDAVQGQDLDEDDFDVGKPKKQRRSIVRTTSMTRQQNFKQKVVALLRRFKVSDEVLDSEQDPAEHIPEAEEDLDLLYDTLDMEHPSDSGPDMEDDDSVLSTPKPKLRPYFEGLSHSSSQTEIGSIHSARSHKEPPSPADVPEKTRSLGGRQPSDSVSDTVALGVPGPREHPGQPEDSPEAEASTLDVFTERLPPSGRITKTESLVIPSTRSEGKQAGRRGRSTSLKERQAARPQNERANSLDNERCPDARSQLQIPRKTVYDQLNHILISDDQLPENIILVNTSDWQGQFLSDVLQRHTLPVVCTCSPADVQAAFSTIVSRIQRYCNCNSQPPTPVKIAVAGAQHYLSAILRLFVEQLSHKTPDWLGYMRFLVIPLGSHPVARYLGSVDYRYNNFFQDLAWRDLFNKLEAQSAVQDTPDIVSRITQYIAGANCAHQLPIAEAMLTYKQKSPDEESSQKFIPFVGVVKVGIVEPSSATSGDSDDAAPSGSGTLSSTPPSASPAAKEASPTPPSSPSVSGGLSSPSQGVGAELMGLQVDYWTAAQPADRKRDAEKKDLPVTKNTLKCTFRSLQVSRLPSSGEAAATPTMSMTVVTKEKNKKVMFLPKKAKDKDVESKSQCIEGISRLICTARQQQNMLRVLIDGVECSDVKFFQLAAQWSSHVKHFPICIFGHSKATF
UniProt P28482: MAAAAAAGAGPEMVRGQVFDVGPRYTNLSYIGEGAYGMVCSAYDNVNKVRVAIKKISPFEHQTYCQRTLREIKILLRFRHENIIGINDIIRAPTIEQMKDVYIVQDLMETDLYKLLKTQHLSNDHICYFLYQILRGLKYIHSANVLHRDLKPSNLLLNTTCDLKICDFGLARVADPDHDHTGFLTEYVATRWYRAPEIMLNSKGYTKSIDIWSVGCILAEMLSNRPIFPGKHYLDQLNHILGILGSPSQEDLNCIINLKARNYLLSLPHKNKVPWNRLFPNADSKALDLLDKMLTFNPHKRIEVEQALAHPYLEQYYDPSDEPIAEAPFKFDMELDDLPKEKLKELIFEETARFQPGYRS

Molecular target: phosphofurin acidic cluster sorting protein 2 (human (endogenous in HK-2)) (UniProt Q86VP3)
Experiment: co-IP; lysate of HK-2 cells stably expressing MAPK1, low glucose; anti-PACS-2 antibody overnight at 4°C, Protein A/G mag beads 5 h at 4°C; Western blot for MAPK1

binding: binds
Substance: mitogen-activated protein kinase 1 (from UniProt P28482 1-360) (enzyme)
